Measurements published in PMC9949044.
No constants are given. Whether binding was seen depends on the method and setting. Binding seen in cells or lysates may run through a third protein. These calls come from enrichment with a bait or labelling near it, and not all partners need be listed.

Target: T1, un-acetylated N-terminal H2B.Z peptide, biotinylated (Toxoplasma gondii)
T1 sequence (peptide, biotin on the C-terminal lysine, K(Biotin)): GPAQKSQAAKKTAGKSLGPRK
Test: affinity purification with mass spectrometry; biotinylated H2B.Z N-terminal peptides (acetylated or un-acetylated) as bait; nuclear extract (NE-PER kit) of extracellular RH tachyzoites; short SDS-PAGE, in-gel trypsin digestion, LC-MS/MS; two independent pull-downs for each peptide; only the target purified

| Substance | binding |
| --- | --- |
| RNA recognition motif (RRM)-containing protein (TGME49_262620) | binds |
| acetyl-CoA carboxylase ACC1 (TGME49_221320) (from UniProt S8FE00) (enzyme) | binds |
| clathrin | binds |
